Like-named read-outs stand apart in the source and are kept apart here.
Conditions: 2 g glycine per serving, five test participants

SMILES: NCC(=O)O [glycine, Glycine]
- Masking effect present, preferable effect (Eucommia ulmoides blend tea): 4 person
- Masking effect present, unpreferable effect (Eucommia ulmoides blend tea): 0 person
- No masking effect (Eucommia ulmoides blend tea): 1 person
- Masking effect present, preferable effect (Korean ginseng blend tea): 3 person
- Masking effect present, unpreferable effect (Korean ginseng blend tea): 0 person
- No masking effect (Korean ginseng blend tea): 2 person
- Masking effect present, preferable effect (Puer blend tea): 1 person
- Masking effect present, unpreferable effect (Puer blend tea): 2 person
- No masking effect (Puer blend tea): 2 person
